Measurements reported in publication PMC8058342.
These are yes or no findings as the source states them, for the method shown. Binding seen in cells or lysates may run through a third protein. Some binding calls cover weakened binding; strength is not graded here.

The chains behind the UniProt entries cited, without tags or fusion partners. Where a name states a change or a piece, a line headed by the entry shows the natural chain unless it says otherwise. A line that says so, or that is headed by a name, gives the form on record, which may keep a tag or linker. Residues count along the entry.
UniProt P20827, residues 19-182: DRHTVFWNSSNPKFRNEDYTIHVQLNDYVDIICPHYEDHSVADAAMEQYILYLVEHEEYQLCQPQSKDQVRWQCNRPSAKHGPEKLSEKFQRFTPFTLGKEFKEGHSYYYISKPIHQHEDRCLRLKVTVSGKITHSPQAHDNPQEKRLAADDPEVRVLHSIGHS
mCherry-tagged full-length EphA2 (P29317, residues 24-976): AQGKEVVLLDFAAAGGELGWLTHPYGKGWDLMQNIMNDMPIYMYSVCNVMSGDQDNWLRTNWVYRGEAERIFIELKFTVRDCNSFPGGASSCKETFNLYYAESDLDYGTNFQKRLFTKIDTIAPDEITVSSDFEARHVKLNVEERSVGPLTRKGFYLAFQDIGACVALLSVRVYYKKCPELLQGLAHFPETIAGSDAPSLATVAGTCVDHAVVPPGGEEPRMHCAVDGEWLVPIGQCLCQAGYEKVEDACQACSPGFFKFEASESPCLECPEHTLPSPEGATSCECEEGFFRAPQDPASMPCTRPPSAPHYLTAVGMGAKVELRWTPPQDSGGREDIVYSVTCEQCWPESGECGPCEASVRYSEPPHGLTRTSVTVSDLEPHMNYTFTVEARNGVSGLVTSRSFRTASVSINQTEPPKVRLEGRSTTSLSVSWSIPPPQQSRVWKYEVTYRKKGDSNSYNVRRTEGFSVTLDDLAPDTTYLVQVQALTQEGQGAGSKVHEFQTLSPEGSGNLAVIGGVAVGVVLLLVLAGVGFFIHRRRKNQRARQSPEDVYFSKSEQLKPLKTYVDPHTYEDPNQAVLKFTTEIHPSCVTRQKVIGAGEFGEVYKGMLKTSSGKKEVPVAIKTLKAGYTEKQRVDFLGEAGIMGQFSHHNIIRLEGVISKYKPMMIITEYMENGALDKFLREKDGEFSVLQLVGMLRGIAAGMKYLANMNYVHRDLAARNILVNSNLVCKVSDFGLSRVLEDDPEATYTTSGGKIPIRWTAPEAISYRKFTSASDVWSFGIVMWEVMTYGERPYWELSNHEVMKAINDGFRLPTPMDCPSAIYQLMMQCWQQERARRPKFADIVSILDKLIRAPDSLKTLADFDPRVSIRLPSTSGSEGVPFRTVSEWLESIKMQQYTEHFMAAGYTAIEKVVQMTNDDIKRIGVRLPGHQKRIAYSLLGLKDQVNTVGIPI
mCherry-tagged EphA2-S897A (Ser897 mutated to alanine) (P29317, form named): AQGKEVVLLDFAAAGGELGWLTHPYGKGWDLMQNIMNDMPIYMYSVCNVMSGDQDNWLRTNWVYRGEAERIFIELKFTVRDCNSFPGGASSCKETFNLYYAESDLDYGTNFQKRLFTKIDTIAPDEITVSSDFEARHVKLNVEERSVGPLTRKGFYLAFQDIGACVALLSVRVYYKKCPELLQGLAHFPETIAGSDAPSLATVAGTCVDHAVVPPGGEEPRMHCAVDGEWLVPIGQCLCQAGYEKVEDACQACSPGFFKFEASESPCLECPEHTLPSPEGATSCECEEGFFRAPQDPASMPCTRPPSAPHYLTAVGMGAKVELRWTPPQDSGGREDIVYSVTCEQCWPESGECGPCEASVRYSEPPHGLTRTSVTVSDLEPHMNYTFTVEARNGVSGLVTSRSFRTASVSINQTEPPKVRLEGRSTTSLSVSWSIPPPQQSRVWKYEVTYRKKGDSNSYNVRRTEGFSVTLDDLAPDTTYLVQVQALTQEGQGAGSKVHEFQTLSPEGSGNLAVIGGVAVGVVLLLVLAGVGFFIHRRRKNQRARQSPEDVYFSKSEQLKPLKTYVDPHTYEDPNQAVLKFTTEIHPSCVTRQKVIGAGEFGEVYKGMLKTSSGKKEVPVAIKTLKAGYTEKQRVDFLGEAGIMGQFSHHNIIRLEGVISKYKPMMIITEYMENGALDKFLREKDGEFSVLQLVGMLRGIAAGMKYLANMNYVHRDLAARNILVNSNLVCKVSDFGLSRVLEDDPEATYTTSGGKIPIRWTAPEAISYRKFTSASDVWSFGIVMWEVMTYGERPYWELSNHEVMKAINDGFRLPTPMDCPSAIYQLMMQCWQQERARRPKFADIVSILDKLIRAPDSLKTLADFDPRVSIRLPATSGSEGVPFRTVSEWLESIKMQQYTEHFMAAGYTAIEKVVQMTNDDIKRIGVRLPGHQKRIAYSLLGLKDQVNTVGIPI

Target: Flag-tagged Ephrin A1 (human) (UniProt P20827)
Experiment: co-IP; Flag-Ephrin A1 co-transfected with mCherry-EphA2 or mutants in HEK-293T; lysis in 40 mM Tris, 150 mM NaCl, 1% Triton X-100, 50 mM NaF, 5 mM Na3VO4, 2 mM EDTA; precipitated with anti-Flag antibody and protein A agarose, Western blot

| binding | Substance |
| --- | --- |
| binds | mCherry-tagged EphA2-S897A (Ser897 mutated to alanine) (from UniProt P29317 24-976) (receptor) |
| binds | mCherry-tagged full-length EphA2 (from UniProt P29317 24-976) (receptor) |
